# From publication PMC12153360
# These are yes or no findings as the source states them, for the method shown. Binding seen in cells or lysates may run through a third protein. Some binding calls cover weakened binding; strength is not graded here.
# Tests used:
# [1] = molecular target: myc-tagged SARS-CoV-2 M (SARS-CoV-2) (UniProt P0DTC5); experiment: co-IP
# [2] = molecular target: Bril-M of HCoV-HKU1 (HCoV-HKU1) (UniProt Q5MQC7); experiment: pull-down; only the target purified
# [3] = molecular target: Bril-M of HCoV-OC43 (HCoV-OC43) (UniProt Q01455); experiment: pull-down; only the target purified
# [4] = molecular target: Bril-M of MERS-CoV (MERS-CoV) (UniProt K9N7A1); experiment: pull-down; only the target purified
# [5] = molecular target: Bril-tagged SARS-CoV-2 M (SARS-CoV-2) (UniProt P0DTC5); experiment: pull-down; only the target purified
# Flag-tagged VPS28 = Flag-tagged VPS28 (UniProt Q9UK41); experiment: co-IP
substance,measurement,setting,value
Flag-tagged VPS28 (from UniProt Q9UK41 1-221),binding,[1],binds
same,binding,[2],binds
same,binding,[3],binds
same,binding,[4],binds
same,binding,[5],binds
myc-tagged HCoV-HKU1 M (from UniProt Q5MQC7 1-223),binding,Flag-tagged VPS28,binds
myc-tagged HCoV-OC43 M (from UniProt Q01455 1-230),binding,Flag-tagged VPS28,binds
myc-tagged SARS-CoV-2 M (from UniProt P0DTC5 1-222),binding,Flag-tagged VPS28,binds
